Results as given in PubChem BioAssay AID504648 (National Center for Advancing Translational Sciences (NCATS), 2011).
The whole screen tested about 390,000 compounds, of which about 610 (0.16%) were called active. This list was built around the results that the source calls inconclusive (neither active nor inactive); the mix of calls is not that of the screen. The call rests on the fitted dose curve; in most records, active means well fitted inhibition curve with a large enough effect; inconclusive means small, poorly fitted or top-dose-only effect, or effect the other way, or another doubt; inactive means no such curve, though single readings can be large or run the other way. Potencies beside an inconclusive call are fits to weak or partial responses and may not hold up.
On the % scale 0 is the no-effect control and ±100 the full control effect; potency means the concentration at half of the fitted maximal effect.

Assay: Nrf2 qHTS screen for inhibitors: counterscreen for cytotoxicity
Settings: A549 ARE-Fluc cells, CellTiter-Fluor viability, 18-24 h; activity change, negative = cytotoxicity: at 46 µM (top of the series)
How it was run: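 A549 ARE-Fluc cells in 5% FBS OPTI-MEM, 5000 cells/well, rested 2 h then exposed to compounds in concentration-response for 18-24 h at 37 °C. Viability by CellTiter-Fluor fluorescence (Ex 405/Em 525) after 30 min; luciferase luminescence (BugLite, 15 min, RT) read afterwards.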
With `Cc1nn2c3c(cnc2c1-c1ccccc1)C(=O)CCC3` the “activity change, negative = cytotoxicity” value was inactive: -2.34%. In the case of `CCCCOc1ccc(CNn2c(C)nc3ccccc3c2=O)cc1`, the Potency is reported as inconclusive: 25.9 µM [falling, single point]. With `O=[N+]([O-])c1cc(S(=O)(=O)Nc2ccc(Cl)cc2)ccc1N/N=C/c1ccncc1` the “activity change, negative = cytotoxicity” value was inactive: -9.9%. With `COc1ccc(/C=C2\SC(=S)N(CCCC(=O)N3CCN(C)CC3)C2=O)cc1` the Potency was inconclusive: 20.6 µM [falling, single point]. For `O=C(CSc1oc(-c2ccco2)nc1S(=O)(=O)c1ccc(Cl)cc1)c1ccc(Cl)cc1`, the “activity change, negative = cytotoxicity” value was inactive: -17.4%. With `Cc1ccc(S(=O)(=O)Nc2cc3c(cc2N2CCOCC2)n(C)c(=O)n3C)c(C)c1` the “activity change, negative = cytotoxicity” value was inactive: 0.103%. For `CCOC(=O)C1=C(C)NC(=S)NC1c1ccc(-c2ccc(Cl)cc2)o1` (stereo not drawn), the “activity change, negative = cytotoxicity” value was inactive: -2.86%. With `CN(CC1COc2ccccc2O1)C(=O)CSc1ncccn1` (stereo not drawn) the Potency was inconclusive: 25.9 µM [activator, partial curve, poor fit]. With `CCOc1ccc(C=NNc2ccc(S(=O)(=O)Nc3ccccc3C(=O)O)cc2[N+](=O)[O-])cc1` the Potency was inconclusive: 25.9 µM [falling, single point]. For `COc1cccc(C(=O)Nc2nnc(-c3cccs3)o2)c1`, the “activity change, negative = cytotoxicity” value was inactive: -8.49%. In the case of `COc1cnc(-c2ccccn2)nc1Sc1ccc(C)cc1`, the “activity change, negative = cytotoxicity” value is reported as inactive: -10.1%. With `COC(=O)c1cn(NC(=O)c2ccc(OC)c(OC)c2)c(=O)c2ccccc12` the “activity change, negative = cytotoxicity” value was inactive: -7.76%. In the case of `CCOC(=O)CN1C(=O)S/C(=C/C=C/c2ccc(N(C)C)cc2)C1=O`, the Potency is reported as inconclusive: 18.4 µM [falling, partial curve, poor fit]. With `Cc1cc(/C=N/Nc2ccc([N+](=O)[O-])cn2)c(C)n1-c1ccccc1` the Potency was inconclusive: 29.1 µM [falling, partial curve, poor fit]. For `COc1cc(CNCCO)cc(Br)c1OCc1ccccc1Cl`, the Potency was inconclusive: 23.1 µM [activator, partial curve, poor fit]. For `CSC1=NCCN1C(=O)c1ccc2ccccc2c1`, the Potency was inconclusive: 13 µM [activator, partial curve, poor fit]. For `NC(N)=N/N=C/c1ccc(Cl)c(Cl)c1`, the “activity change, negative = cytotoxicity” value was inactive: -0.0693%. In the case of `COc1cc(C(C)=O)ccc1Oc1cc(NN2CCCCC2)c([N+](=O)[O-])cc1[N+](=O)[O-]`, the Potency is reported as inconclusive: 32.6 µM [falling, partial curve, poor fit]. For `Fc1cccc(-n2ncc3c2ncn2nc(Cc4ccccc4)nc32)c1`, the “activity change, negative = cytotoxicity” value was inactive: 7.97%. In the case of `COc1ccccc1CNC(=O)CCC1N=C2c3ccccc3N=C(SCc3ccc(C)cc3C)N2C1=O` (stereo not drawn), the Potency is reported as inconclusive: 29.1 µM [falling, single point]. With `N=c1n(Cc2ccccc2)c2ccccc2n1CC(O)COc1ccc(Cl)cc1Cl` (stereo not drawn) the Potency was inconclusive: 29.1 µM [falling, single point]. With `O=[N+]([O-])c1cccc(/C=C/c2nc3ccc([N+](=O)[O-])cc3[nH]2)c1` the Potency was inconclusive: 25.9 µM [falling, partial curve, poor fit]. In the case of `CC(N=C(NC#N)Nc1ccncc1)C(C)(C)C` (stereo not drawn), the Potency is reported as inconclusive: 1.64 µM [activator, partial curve, poor fit]. In the case of `Cc1ccc(F)c(NC(=O)/C(C#N)=C(\O)c2ccc(C(C)(C)C)cc2)c1`, the Potency is reported as inconclusive: 29.1 µM [activator, partial curve, poor fit]. With `COC(=O)C1=C(C)NC(=O)/C1=C\c1cc(C)n(-c2cc(C)cc(C)c2)c1C` the Potency was inconclusive: 10.3 µM [falling, partial curve]. In the case of `COc1ccc(-c2nc(SCC(=O)Nc3ccc4c(c3)OCCO4)c(-c3ccc(C)cc3)[nH]2)cc1OC`, the Potency is reported as inconclusive: 13 µM [falling, partial curve, poor fit]. With `C(=N\Nc1ccc2nncn2n1)/c1ccco1` the “activity change, negative = cytotoxicity” value was inactive: -7.63%. With `CCn1c(=N)n(CC(O)COc2cccc(C)c2)c2ccccc21` (stereo not drawn) the Potency was inconclusive: 3.26 µM [activator, single point]. With `CCOc1cc(Br)c(CN2C(=O)NC3(CCCCCC3)C2=O)cc1OCC` the Potency was inconclusive: 25.9 µM [falling, single point]. For `CCCCC1CCC(C(=O)N(C)CC(=O)Nc2cccc(F)c2)CC1` (stereo not drawn), the Potency was inconclusive: 29.1 µM [falling, single point]. For `Cc1cc(C)cc(NC(=O)c2cc(CN3CCCC3)on2)c1`, the “activity change, negative = cytotoxicity” value was inactive: -16.2%. In the case of `CN(C)CCCN(C(=O)c1cc2cc([N+](=O)[O-])ccc2s1)c1nc2cc3c(cc2s1)OCCO3`, the Potency is reported as inconclusive: 29.1 µM [falling, single point]. In the case of `Cc1ccc(-c2nc(N=Nc3ccc(O)cc3)n[nH]2)cc1`, the Potency is reported as inconclusive: 29.1 µM [falling, single point]. In the case of `CCN(CC)CCCCNc1ncc2cc(-c3cc(OC)cc(OC)c3)c(NC(=O)NC(C)(C)C)nc2n1`, the Potency is reported as inconclusive: 16.4 µM [falling, single point]. In the case of `COc1ccc(NC(=O)CSc2nc(-c3ccc(F)cc3)[nH]c2-c2ccc(C)cc2)cc1OC`, the Potency is reported as inconclusive: 29.1 µM [falling, partial curve, poor fit]. For `CCCCn1c(-c2ccc(Br)cc2F)nc2c1c(=O)[nH]c(=O)n2CC(C)C`, the Potency was inconclusive: 29.1 µM [falling, single point]. In the case of `COc1ccccc1CNC(=O)Cc1csc(NC(=O)Nc2ccccc2OC)n1`, the “activity change, negative = cytotoxicity” value is reported as inactive: -4.81%. In the case of `Cn1nnnc1Sc1ncnc2scc(-c3cccc(F)c3)c12`, the Potency is reported as inconclusive: 25.9 µM [falling, single point]. In the case of `CN(C)CCNc1ccc(CO)c2sc3ccc(O)cc3c(=O)c12`, the Potency is reported as inconclusive: 18.4 µM [falling, partial curve]. For `Cc1ccc(S(=O)(=O)N2CCOCC2)cc1NC(=O)CNCc1cccnc1`, the Potency was inconclusive: 6.51 µM [activator, single point]. With `N#Cc1c(Cl)nsc1NC(=O)c1ccccc1` the Potency was inconclusive: 6.51 µM [falling, partial curve]. With `CCOC(=O)c1cnc(SCc2ccc(C(C)(C)C)cc2)nc1N` the Potency was inconclusive: 6.51 µM [falling, single point]. For `Cc1ccc(-c2nn(-c3ccccc3)cc2/C=C2\SC(=S)N(CCCCCC(=O)O)C2=O)o1`, the Potency was inconclusive: 18.4 µM [falling, partial curve, poor fit].
